Experimental findings from PMC7394235 are described below.

Chains of the proteins cited; added tags and fusions are not shown.
UniProt O23320: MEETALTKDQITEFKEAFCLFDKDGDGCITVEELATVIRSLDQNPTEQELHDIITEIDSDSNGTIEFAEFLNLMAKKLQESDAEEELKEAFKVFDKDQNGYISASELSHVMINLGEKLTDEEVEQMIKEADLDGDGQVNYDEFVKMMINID

These are yes or no findings as the source states them, for the method shown. Where a sequence is shown, tags or fusion partners need not be part of it.

In the test the target is T1, MLO10-CT-BD (C-terminal of AtMLO10, 434-569 aa) (Arabidopsis thaliana) (UniProt Q9FKY5).
T1 sequence: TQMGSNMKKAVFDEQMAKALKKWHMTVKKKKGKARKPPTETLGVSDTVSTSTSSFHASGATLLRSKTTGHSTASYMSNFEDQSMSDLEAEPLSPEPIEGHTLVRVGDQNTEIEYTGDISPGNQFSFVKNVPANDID
Description: two-hybrid; MLO10-CT or its fragments P1-P5 as BD fusion, CaMs/CMLs as AD fusion (pGADT7), co-transformed into yeast AH109; selection on SD lacking Leu, Trp, His with 1.5 mM 3-AT; X-Gal filter assay.

In the case of “CML8 (AD fusion in pGADT7) (from UniProt O23320 1-151)”, the binding result was “no binding”.
